Test results reported in doi:10.1101/2022.11.11.516176.
Results are given in words; binding and its absence hold for the method and conditions named. For part of these data: In cells and extracts the contact can be indirect. Some results given as binding are weak or reduced against the parent protein; the word gives no strength.

Sequences of proteins named here, by UniProt entry; tags and fusion partners are left off.
UniProt P55884: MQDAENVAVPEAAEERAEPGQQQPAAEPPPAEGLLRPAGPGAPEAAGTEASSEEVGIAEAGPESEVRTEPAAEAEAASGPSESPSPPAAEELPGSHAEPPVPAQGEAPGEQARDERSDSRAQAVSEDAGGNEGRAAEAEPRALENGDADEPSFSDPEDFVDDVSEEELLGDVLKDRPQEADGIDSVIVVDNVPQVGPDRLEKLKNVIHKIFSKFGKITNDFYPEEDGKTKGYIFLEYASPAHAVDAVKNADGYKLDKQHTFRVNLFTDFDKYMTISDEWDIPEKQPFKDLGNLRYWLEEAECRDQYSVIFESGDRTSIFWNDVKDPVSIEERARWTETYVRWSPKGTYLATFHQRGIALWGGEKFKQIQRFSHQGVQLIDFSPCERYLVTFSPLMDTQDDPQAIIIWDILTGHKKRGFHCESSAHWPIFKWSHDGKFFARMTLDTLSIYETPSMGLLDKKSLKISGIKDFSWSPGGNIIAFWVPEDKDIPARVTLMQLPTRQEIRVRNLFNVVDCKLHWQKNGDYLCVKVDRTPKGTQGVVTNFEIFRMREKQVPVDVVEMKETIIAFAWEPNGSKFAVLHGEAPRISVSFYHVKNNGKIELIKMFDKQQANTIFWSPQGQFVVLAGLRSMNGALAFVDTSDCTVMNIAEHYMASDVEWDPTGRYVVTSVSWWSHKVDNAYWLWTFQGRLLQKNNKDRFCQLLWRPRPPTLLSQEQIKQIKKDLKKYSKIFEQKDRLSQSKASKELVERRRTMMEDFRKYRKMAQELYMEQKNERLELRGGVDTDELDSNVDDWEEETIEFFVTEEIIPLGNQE
UniProt P06730: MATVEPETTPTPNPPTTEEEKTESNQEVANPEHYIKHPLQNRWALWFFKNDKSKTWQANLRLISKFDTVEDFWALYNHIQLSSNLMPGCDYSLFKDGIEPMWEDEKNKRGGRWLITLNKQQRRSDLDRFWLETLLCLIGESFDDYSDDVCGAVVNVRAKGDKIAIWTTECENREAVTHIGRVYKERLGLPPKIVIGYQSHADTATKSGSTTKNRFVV
UniProt Q04637: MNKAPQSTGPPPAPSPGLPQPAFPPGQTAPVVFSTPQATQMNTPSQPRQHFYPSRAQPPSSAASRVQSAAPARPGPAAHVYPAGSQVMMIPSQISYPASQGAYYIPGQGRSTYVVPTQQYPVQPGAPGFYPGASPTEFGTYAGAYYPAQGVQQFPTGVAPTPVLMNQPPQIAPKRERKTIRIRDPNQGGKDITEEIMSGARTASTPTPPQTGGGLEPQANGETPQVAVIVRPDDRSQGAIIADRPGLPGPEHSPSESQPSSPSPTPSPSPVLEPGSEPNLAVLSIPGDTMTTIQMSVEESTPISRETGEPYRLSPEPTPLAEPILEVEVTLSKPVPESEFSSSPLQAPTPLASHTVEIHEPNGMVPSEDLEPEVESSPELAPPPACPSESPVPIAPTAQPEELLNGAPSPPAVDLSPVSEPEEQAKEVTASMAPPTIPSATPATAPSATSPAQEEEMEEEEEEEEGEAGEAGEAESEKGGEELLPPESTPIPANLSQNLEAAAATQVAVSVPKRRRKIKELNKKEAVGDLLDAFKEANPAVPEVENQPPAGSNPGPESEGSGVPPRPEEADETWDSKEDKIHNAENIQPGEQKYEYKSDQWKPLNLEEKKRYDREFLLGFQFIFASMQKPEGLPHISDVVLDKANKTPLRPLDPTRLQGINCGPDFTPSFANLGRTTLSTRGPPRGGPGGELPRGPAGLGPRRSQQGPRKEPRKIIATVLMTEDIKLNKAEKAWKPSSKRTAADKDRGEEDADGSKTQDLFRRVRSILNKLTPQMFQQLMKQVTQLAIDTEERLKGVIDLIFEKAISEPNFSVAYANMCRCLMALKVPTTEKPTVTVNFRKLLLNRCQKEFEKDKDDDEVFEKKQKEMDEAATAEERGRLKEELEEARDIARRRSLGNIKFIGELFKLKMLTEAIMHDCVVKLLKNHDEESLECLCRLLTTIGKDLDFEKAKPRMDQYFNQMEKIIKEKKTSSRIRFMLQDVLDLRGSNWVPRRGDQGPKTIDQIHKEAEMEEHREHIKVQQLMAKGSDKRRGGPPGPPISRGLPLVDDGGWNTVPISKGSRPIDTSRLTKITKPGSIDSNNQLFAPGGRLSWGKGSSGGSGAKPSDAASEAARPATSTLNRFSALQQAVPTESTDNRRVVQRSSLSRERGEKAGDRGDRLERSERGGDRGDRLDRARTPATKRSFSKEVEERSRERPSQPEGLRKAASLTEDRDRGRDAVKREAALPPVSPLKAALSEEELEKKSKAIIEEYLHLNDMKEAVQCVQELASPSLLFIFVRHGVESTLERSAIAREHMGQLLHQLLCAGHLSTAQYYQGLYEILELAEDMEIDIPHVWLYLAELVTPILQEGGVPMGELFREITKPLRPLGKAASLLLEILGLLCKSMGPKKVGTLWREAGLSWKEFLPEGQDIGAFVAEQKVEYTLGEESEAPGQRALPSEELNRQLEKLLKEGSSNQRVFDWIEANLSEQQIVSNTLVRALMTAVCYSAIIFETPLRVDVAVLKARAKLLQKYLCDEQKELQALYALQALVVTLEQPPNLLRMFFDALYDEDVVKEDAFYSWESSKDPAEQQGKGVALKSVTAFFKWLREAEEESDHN
UniProt Q9Y520: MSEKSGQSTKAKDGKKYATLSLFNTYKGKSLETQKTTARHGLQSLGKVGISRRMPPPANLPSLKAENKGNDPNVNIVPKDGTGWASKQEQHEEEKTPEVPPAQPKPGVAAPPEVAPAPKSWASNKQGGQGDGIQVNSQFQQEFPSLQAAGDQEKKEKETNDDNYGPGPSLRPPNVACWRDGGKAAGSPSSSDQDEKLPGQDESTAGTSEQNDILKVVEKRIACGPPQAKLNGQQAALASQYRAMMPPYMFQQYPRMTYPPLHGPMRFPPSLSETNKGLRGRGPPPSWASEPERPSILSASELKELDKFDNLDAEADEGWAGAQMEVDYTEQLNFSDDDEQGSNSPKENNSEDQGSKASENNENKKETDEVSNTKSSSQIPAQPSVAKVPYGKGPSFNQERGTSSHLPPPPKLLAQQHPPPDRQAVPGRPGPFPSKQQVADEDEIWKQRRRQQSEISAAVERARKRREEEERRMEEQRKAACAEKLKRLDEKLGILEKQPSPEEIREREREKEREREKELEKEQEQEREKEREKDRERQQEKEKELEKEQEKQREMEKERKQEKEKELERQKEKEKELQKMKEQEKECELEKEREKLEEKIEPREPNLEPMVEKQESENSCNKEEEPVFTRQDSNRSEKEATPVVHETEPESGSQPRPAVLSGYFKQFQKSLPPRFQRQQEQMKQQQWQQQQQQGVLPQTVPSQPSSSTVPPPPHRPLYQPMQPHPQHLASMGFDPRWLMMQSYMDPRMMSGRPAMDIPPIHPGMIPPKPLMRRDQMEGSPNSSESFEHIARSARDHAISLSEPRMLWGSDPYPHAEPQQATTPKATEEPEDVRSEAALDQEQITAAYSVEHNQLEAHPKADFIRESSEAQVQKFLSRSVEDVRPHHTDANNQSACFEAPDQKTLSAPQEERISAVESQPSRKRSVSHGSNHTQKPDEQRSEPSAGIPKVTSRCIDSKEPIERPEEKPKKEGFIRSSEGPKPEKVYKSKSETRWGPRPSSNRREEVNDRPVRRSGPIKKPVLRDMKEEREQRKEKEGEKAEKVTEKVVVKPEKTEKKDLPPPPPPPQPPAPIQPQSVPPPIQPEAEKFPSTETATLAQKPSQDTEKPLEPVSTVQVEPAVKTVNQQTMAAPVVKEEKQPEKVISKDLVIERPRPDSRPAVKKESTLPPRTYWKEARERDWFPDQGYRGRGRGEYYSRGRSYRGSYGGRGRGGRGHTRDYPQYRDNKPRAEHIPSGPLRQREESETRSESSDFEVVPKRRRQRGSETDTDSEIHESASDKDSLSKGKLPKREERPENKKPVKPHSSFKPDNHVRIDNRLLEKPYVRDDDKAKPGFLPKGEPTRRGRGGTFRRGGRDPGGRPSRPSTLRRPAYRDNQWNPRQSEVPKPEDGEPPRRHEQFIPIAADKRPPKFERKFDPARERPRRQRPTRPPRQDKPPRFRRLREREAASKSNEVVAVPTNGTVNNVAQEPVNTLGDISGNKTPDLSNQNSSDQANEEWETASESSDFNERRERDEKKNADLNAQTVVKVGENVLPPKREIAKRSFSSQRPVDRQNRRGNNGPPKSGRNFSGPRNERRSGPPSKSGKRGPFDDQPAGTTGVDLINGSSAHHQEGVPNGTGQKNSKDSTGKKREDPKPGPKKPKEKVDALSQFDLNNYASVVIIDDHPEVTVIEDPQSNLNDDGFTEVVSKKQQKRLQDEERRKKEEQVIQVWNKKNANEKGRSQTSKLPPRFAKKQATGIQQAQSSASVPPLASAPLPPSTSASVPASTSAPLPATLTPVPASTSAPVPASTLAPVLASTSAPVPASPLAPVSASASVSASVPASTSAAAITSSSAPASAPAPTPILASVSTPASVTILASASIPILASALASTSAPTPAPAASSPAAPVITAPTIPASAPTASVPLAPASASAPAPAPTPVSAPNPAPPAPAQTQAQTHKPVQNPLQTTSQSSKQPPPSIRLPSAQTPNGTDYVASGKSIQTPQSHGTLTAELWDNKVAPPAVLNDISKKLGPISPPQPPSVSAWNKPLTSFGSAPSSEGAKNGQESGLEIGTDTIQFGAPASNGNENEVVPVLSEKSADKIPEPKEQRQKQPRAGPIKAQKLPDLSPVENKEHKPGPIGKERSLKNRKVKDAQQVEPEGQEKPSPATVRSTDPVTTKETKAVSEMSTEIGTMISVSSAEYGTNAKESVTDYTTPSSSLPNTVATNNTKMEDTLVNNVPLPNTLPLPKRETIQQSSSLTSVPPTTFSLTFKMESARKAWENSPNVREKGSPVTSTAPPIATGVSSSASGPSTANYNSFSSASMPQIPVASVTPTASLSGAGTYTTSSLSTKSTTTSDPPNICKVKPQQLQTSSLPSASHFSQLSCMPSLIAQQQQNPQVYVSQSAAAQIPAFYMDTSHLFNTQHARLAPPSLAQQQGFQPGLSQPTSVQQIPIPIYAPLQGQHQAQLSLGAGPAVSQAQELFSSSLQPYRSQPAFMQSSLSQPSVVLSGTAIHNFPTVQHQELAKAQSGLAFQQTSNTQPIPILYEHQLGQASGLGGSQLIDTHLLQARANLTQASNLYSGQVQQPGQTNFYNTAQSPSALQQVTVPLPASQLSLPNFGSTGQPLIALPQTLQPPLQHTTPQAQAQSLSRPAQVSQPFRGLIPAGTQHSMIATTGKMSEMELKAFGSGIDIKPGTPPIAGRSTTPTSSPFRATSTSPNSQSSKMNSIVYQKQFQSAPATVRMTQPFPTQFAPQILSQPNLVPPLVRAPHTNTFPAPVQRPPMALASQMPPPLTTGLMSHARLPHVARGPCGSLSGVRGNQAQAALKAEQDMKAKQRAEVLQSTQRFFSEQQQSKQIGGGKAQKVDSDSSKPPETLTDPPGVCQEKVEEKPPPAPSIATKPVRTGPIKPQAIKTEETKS

Key:
[1] = biological target: eIF3B (human (endogenous in HeLa)) (UniProt P55884); experiment: selective 80S ribosome footprinting
[2] = biological target: eIF4E (human (endogenous in HeLa)) (UniProt P06730); experiment: selective 80S ribosome footprinting
[3] = biological target: eIF4G1 (human (endogenous in HeLa)) (UniProt Q04637); experiment: selective 80S ribosome footprinting
[4] = biological target: eIF3B (human (endogenous in HeLa)) (UniProt P55884); experiment: co-IP
[5] = biological target: eIF4E (human (endogenous in HeLa)) (UniProt P06730); experiment: co-IP
[6] = biological target: eIF4G1 (human (endogenous in HeLa)) (UniProt Q04637); experiment: co-IP

Measured: binding

PRRC2C (from UniProt Q9Y520 1-2896)
binds: all assays above

PRRC2B (from UniProt Q5JSZ5 1-2229)
binds: [1] | [4]

PRRC2A (from UniProt P48634 1-2157)
binds: [1] | [2] | [3]

eIF4G1 (from UniProt Q04637 1-1599)
binds: [1]
